Experimental data as given in patent US20240124404A1, “COMPOSITION FOR TREATING DISEASES RELATED TO ADVANCED GLYCATION END PRODUCTS COMPRISING INDOLE DERIVATIVE” (METACEN THERAPEUTICS, priority 2021, published 2024).
Some results were stated once for a whole list of compounds, not compound by compound.

Experiment: Methylglyoxal (MGO) trapping ability: free MGO concentration by HPLC
Assay type: biochemical
Method: Specifically, a mixture was prepared by adding methylglyoxal (MGO) to phosphate buffered saline (PBS, Cat no. 10010023, pH 7.4). The compound of the present invention was added to the mixture (MGO+PBS) at a concentration of 1:1 with methylglyoxal (MGO) and reacted, and then cultured at 37° C. for 1 day.

N[C@H](CO)Cc1c[nH]c2ccc(O)cc12 [Compound 29, (S)-3-(2-amino-3-hydroxypropyl)-1H-indol-5-ol (L-tryptophanol)]
decrease of free methylglyoxal concentration on day 1 relative to control group (day 1 after incubation, versus control (PBS+MGO)): ≥ 97%
free methylglyoxal on day 7 compared to control group (day 7 after incubation): significantly eliminated compared to the control group
